From paper PMC9529944, “Molecular asymmetry of a photosynthetic supercomplex from green sulfur bacteria” (Nature Communications, 2022)
Results are given in words; binding and its absence hold for the method and conditions named. Some results given as binding are weak or reduced against the parent protein; the word gives no strength.

Molecular target: T1, Fenna-Matthews-Olson (FMO) complex (Chlorobaculum tepidum (endogenous in C. tepidum TLS, DSM 12025)) (UniProt Q46393)
T1 sequence: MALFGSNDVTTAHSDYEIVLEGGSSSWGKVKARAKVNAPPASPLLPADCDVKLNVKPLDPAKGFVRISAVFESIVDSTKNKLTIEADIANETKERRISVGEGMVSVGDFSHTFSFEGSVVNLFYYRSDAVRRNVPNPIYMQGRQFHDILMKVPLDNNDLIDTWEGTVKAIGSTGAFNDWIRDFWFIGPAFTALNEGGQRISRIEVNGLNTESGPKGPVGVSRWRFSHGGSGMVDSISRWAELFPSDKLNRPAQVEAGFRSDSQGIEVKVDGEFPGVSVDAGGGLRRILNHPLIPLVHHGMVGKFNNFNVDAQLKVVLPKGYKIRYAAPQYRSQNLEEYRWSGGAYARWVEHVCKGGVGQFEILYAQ
Assay: cryo-EM structure; single-particle cryo-EM of the native supercomplex extracted with DDM from C. tepidum membranes; RC-FMO2 at 3.08 Å (local 2.92 and 3.06 Å), RC-FMO1 at 3.49 Å; 20 mM Tris-Cl pH 8.0, 200 mM NaCl, 0.17 mM DDM; both purified

- binding: binds
B1: PscB (protein, UniProt Q8KAY1 1-231)
chain: MAEPVENKNQAPAPGAKVPPKGAPAAPKAGAPAAPKGPVAPKAGAPAAKTGASAAKQAGKPRLASLGVTLGRSGVRQESALPYVKPKAVPPPKPAAPAAKGAPAPKGAPAAPAAKAAPGAPVAKAAPKAKKHYFIIENLCVGCGLCLDKCPPKVNAIGYKFYGDVQEGGFRCYIDQAACISCSACFSGDECPSGALIEVLPDGEVLDFSYTPPERLDFDLRFLHRFHREAR
